# Data as given in patent publication US20260265351A1.
# These are yes or no findings as the source states them, for the method shown. Binding calls can cover weak binding; strength is not graded here.
# B1: hcab05 (antibody, V domains shown)
# VH: QVQLQESGSGLVRPSQTLSLTCTVSGGSISSDAYSWNWIRQPPGKGLEWIGHIYHSGRTSHNPSLNSRVTISVDRSKNQFSLRLTSVTAADTAVYYCAREAQDYRGYRFDSWGQGTLVTVSS
# VL: DIQMTQSPSSLSASVGDRVTITCRASQYISDYLNWYQQKPGKAPNLLIYAASSLQSGVPSRFSGSGSGTDFTLTISSLQPEDFATYYCQQSYGTPPWTFGQGTKVEFK
# Target: biotinylated 1a157 E2 (hepatitis C virus)
# Test: BLI E2-binding competition
binder,measurement,value
B1,binding,binds
